Source: PubChem BioAssay AID2517 (National Center for Advancing Translational Sciences (NCATS), 2010)
Where “and” joins values, the source holds several entries; their conditions need not be identical. Equal values may be shown once. Among all 350,000 compounds or so, about 1,200 (0.34%) were called active. The inconclusive results got no clear call from the source; some entries with a clear call stand among them for comparison. Calls follow the shape of the dose curve; as a rule, active = well fitted inhibition curve with a large enough effect; inconclusive = small, poorly fitted or top-dose-only effect; inactive = no such curve, though single readings can be large or run the other way. Potencies beside an inconclusive call are fits to weak or partial responses and may not hold up.

The chains behind the UniProt entries cited, without tags or fusion partners.
UniProt P27695, whole entry, looked up: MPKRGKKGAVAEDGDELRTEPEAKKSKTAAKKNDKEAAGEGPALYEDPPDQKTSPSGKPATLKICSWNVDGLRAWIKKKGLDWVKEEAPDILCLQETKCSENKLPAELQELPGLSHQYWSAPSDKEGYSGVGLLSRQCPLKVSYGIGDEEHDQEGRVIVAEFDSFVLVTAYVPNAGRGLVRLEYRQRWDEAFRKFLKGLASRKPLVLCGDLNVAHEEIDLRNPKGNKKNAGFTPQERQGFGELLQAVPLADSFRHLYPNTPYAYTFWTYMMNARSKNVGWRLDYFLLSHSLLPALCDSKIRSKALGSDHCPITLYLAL

Biological target: DNA repair nuclease/redox regulator APEX1 (Homo sapiens) (UniProt P27695)
Assay: qHTS Assay for Inhibitors of the Human Apurinic/apyrimidinic Endonuclease 1 (APE1); also: nearly all actives have a fitted effect of over 55% in size;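 as to activity change, negative = inhibition: plate controls were vehicle for no effect and reference inhibitor for full effect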
Conditions: recombinant APE1, TAMRA/BHQ-2 abasic DNA cleavage fluorescence; activity change, negative = inhibition: at 65.8 µM (top of the series)
Method in brief: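 Compound pre-exposure to 0.75 nM APE1, 15 min at ambient temperature. Reaction initiated with 50 nM TAMRA/BHQ-2 THF substrate, read immediately in kinetic mode, 525 nm excitation, 598 nm emission.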
Potency is read from the fitted curve at half-maximal effect.

| SMILES | Potency | activity change, negative = inhibition |
| --- | --- | --- |
| CC(C)C(=O)Nc1ccc(S(=O)(=O)Nc2ccccn2)cc1 | inconclusive: 0.0398 µM [inhibitor, full curve, poor fit] |  |
| O=C(Nc1ccc([N+](=O)[O-])cc1)c1ccccc1F |  | inactive: 4.98% |
| COC(=O)c1ccccc1C[C@]1(C(=O)OC)C=C[C@H](C)[C@@H](c2ccccc2)N1C(=O)C(F)(F)F |  | inactive: -0.086% |
| CC(NC(=O)Nc1ccc(O)cc1)(C(F)(F)F)C(F)(F)F |  | inactive: -9.79% |
| COc1ccc(C(=O)Nc2ccncc2)cc1OC |  | inactive: 10.8% |
| CCc1ccc(NC(=O)CCn2ccnc2C)cc1 | inconclusive: 7.94 µM [inhibitor, single point] |  |
| O=C(Nc1ccc(F)cc1F)c1csc(-c2cccs2)n1 | inconclusive: 3.98 µM [inhibitor, partial curve] |  |
| Cc1nc2ccc(NC(=O)Nc3ccnc4cccnc34)cc2o1 | inconclusive: 35.5 µM [inhibitor, partial curve] |  |
| COC(=O)[C@H](Cc1ccccc1)NC(=O)[C@H]1C[C@@H]1[C@H](NC(=O)OCc1ccccc1)c1ccccc1 | inconclusive: 31.6 µM [inhibitor, partial curve] |  |
| Cc1ccc(-c2ccc(=O)n(CC(=O)NCCN(C)C)n2)cc1 |  | inactive: 9.97% |
| O=C1/C(=C/c2ccncc2)SC(=S)N1Nc1ccccc1 |  | inactive: -4.85% |
| Cc1ccc(NC(=O)C2CC(=O)N(C(C)C)C2)cc1Cl (stereo not drawn) |  | inactive: 3.46% |
| O=S(=O)(Nc1ccc(Cl)cc1)c1ccc2c(c1)CCO2 | inconclusive: 3.16 µM [inhibitor, full curve, poor fit] |  |
| COc1ccc(Br)cc1C(=O)Nc1ccc(O)cc1 | inconclusive: 44.7 µM [inhibitor, partial curve, poor fit] |  |
| CSCC[C@H](NC(=O)CNC(=O)CNC(=O)[C@H](CO)NC(=O)[C@H](CCCNC(=N)N)NC(=O)[C@H](CO)NC(=O)[C@H](CC(C)C)NC(=O)[C@H](CC(C)C)NC(=O)CNC(=O)[C@H](C)NC(=O)[C@H](CC(C)C)NC(=O)[C@H](CCCNC(=N)N)NC(=O)[C@H](Cc1cnc[nH]1)NC(=O)[C@@H](NC(=O)[C@@H](N)C(C)C)[C@@H](C)O)C(=O)N[C@H](C(=O)N[C@@H](CCCCN)C(=O)N[C@@H](CO)C(=O)N[C@@H](CC(N)=O)C(=O)N[C@@H](Cc1ccccc1)C(=O)N[C@H](C(=O)N1CCC[C@H]1C(=O)N[C@H](C(=O)N[C@@H](CC(N)=O)C(=O)N[C@H](C(=O)NCC(=O)N[C@@H](CO)C(=O)N[C@@H](CCCCN)C(=O)N[C@@H](C)C(=O)N[C@@H](Cc1ccccc1)C(N)=O)C(C)C)[C@@H](C)O)C(C)C)C(C)C |  | inactive: 0.64% |
| O=C(CSc1ccccn1)Nc1ccc(N2CCOCC2)cc1 |  | inactive: -4.11% |
| Cc1nnc2ccc(-c3ccc(NC(=O)Cc4cccs4)cc3)nn12 | inconclusive: 25.1 µM [inhibitor, single point] |  |
| CN(c1cccc(NC(=O)c2cccc([N+](=O)[O-])c2)c1)S(C)(=O)=O | inconclusive: 50.1 µM [inhibitor, partial curve, poor fit] |  |
| CSC1=NSC2=NC(=O)/C(=C/c3coc4ccccc4c3=O)C(=N)N12 |  | inactive: -4.61% |
| C/C(CCN1CCCCc2nc(C)c(C)cc21)=N\O[C@@H](C)c1cc(-c2c(C)cc(C)cc2C)no1 | inconclusive: 5.01 µM [inhibitor, partial curve, poor fit] |  |
| C/C(=N\NC(=O)Cn1cnc2ccccc21)c1cccs1 | inconclusive: 31.6 µM [inhibitor, single point] |  |
| Cc1cc(C(=O)OCC(=O)c2ccc(Br)s2)no1 | inconclusive: 3.16 µM [inhibitor, partial curve] |  |
| O=C1CCC=C1C(O)CCc1ccccc1 (stereo not drawn) |  | inactive: -1.01% |
| CC(C)C[C@H](NC(=O)[C@H](CC(C)C)NC(=O)[C@@H](Cc1c[nH]c2ccccc12)NC(=O)[C@H](Cc1ccccc1)NC(=O)[C@@H](Cc1c[nH]c2ccccc12)NC(=O)[C@H](CCC(N)=O)NC(=O)[C@H](CCC(N)=O)NC(=O)[C@@H]1CCCN1C(=O)[C@H](CCCCN)NC(=O)[C@@H]1CCCN1C(=O)[C@@H](CCCNC(=N)N)NC(=O)[C@@H]1CCCN1C(=O)CNC(=O)[C@H](CC(C)C)NC(=O)[C@H](CC(C)C)NC(=O)[C@H](Cc1ccc(O)cc1)NC(=O)CNC(=O)[C@H](C)NC(=O)[C@H](CO)NC(=O)[C@H](CC(N)=O)NC(=O)[C@H](CC(C)C)NC(=O)[C@@H](NC(=O)[C@H](Cc1c[nH]c2ccccc12)NC(=O)CN)[C@@H](C)O)C(N)=O |  | inactive: 1.92% |
| COc1cccc(NC(=O)c2oc3ccc(S(=O)(=O)N4CCOCC4)cc3c2C)c1 | inconclusive: 12.6 µM [inhibitor, partial curve, poor fit] |  |
| CCn1ccnc1CN(C)Cc1cn(-c2cc(C)ccc2C)nc1-c1ccccc1 | inconclusive: 12.6 µM [inhibitor, partial curve, poor fit] |  |
| CCn1c(SCC(=O)c2ccc(CNC(C)=O)o2)nnc1-c1cccs1 |  | inactive: -4.19% |

| SMILES | Potency | activity change, negative = inhibition |
| --- | --- | --- |
| Cc1ccc(S(=O)(=O)N2CCC(=O)N(CCOCc3cccc(C)c3)CC2)cc1 | inconclusive: 5.62 µM [inhibitor, single point] |  |
| C/C(Cc1nnn(-c2cc(C)on2)n1)=N\O | inconclusive: 8.91 µM [inhibitor, single point] |  |
| CC[C@H](C)[C@H](NC(=O)[C@H](CCCNC(=N)N)NC(=O)[C@H](CCCNC(=N)N)NC(=O)[C@H](CC(C)C)NC(=O)[C@H](Cc1ccccc1)NC(=O)CNC(=O)CNC(=O)[C@@H](N)Cc1ccc(O)cc1)C(=O)N[C@@H](CCCNC(=N)N)C(=O)N1CCC[C@H]1C(=O)N[C@@H](CCCCN)C(=O)N[C@@H](CC(C)C)C(=O)N[C@@H](CCCCN)C(=O)N[C@@H](Cc1c[nH]c2ccccc12)C(=O)N[C@@H](CC(=O)O)C(=O)N[C@@H](CC(N)=O)C(=O)N[C@@H](CCC(N)=O)C(=O)O |  | inactive: -1.98% |
| O=C(O)CN1C(=O)/C(=C\c2cc(Br)ccc2OCc2ccc(Cl)cc2Cl)SC1=S | inconclusive: 23.8 µM [inhibitor, single point] |  |
| Nc1ccc(-c2ccc(N)c(C(=O)O)c2)cc1C(=O)O | inconclusive: 4.47 µM [inhibitor, single point] |  |
| COc1ccc(C(CC(=O)N2CCOCC2)c2c(OC)cc(OC)c3ccc(=O)oc23)cc1 (stereo not drawn) | inconclusive: 22.4 µM [inhibitor, partial curve] and inconclusive: 20 µM [inhibitor, single point] |  |
| Cc1ccc2c(c1)cc(C)c1nnc(SCC(=O)NCc3ccco3)n12 |  | inactive: 8.71% |
| CCCCCCC(=O)N1CCC(c2nc3c(nnn3Cc3ccccc3Cl)c(=O)[nH]2)CC1 | inconclusive: 2.51 µM [inhibitor, partial curve] |  |
| C#CCOCCOCCOCCNc1nc(N2CCN(C(=O)CCCCCCCCCCNC(=O)Cn3cc(C[C@@H](C)O)nn3)CC2)nc(N2CCN(C(=O)CCCCCCCCCCNC(=O)[C@H](CCCN=C(N)N)n3cc(C[C@@H](C)CC)nn3)CC2)n1 | inconclusive: 33.6 µM [inhibitor, single point] |  |
| O=S(=O)(Nc1ccccc1)c1cccc2nsnc12 | active: 7.52 µM |  |
| O=C(O)CCN1C(=O)/C(=C\c2ccc(-c3nc4ccccc4s3)o2)SC1=S |  | inactive: 0.158% |
| N#Cc1c(N2CCCCC2)nc(N)c2c(N)nc(SCC(=O)O)cc12 | inconclusive: 39.8 µM [inhibitor, single point] |  |
| CCC(OCC(O)CN1CCN(CCN2C(=O)c3cccc4cccc(c34)C2=O)CC1)c1ccccc1 (stereo not drawn) | inconclusive: 39.8 µM [inhibitor, single point] |  |
| Cc1ccc2cccc(S(=O)(=O)Nc3ccc4c(c3)OCO4)c2n1 | inconclusive: 39.8 µM [inhibitor, single point] |  |
| O=C(CN1CCN(C(=O)CNC(=O)c2ccc(N3CCCC3=O)cc2)CC1)Nc1ccccc1Cl |  | inactive: 31.2% |
| Cc1cc(C)cc(NC(=O)C(=O)NCCc2c[nH]c3ccccc23)c1 | inconclusive: 12.6 µM [inhibitor, partial curve, poor fit] |  |
| COc1ccc(-c2cnnc(N/N=C/c3ccc(O)c(O)c3)n2)cc1 | active: 20 µM |  |
| COc1cc(C(C(=O)NC(C)(C)C)N(Cc2ccccc2)C(=O)c2cnccn2)cc(OC)c1OC (stereo not drawn) | inconclusive: 39.8 µM [inhibitor, single point] |  |
| CC1(C)NC(=O)N(CCCCSc2ccc(Cl)cc2)C1=O | inconclusive: 7.08 µM [inhibitor, single point] |  |
| CC(C)OC(=O)c1ccc(NC(=O)Cn2c(-c3nonc3N)nc3ccccc32)cc1 | inconclusive: 44.7 µM [inhibitor, single point] |  |
| Cc1ccc(-c2cc(C(F)(F)F)nc(SCC(=O)c3cccc([N+](=O)[O-])c3)n2)cc1 | inconclusive: 0.0158 µM [inhibitor, full curve, poor fit] |  |
| CCN1c2ccccc2N(C)C1(C)c1ccccc1 (stereo not drawn) |  | inactive: -5.27% |
| O=C(N/N=C/c1cccc(OC(=O)c2ccccc2Cl)c1)c1cccnc1 |  | inactive: 34.7% |
| CC(=O)c1ccc2c(c1)C1C=CCC1C(c1ccncc1)N2 (stereo not drawn) | inconclusive: 28.2 µM [inhibitor, partial curve, poor fit] |  |
| O=C(c1ccc(CNc2c(N3CCCC3)c(=O)c2=O)cc1)N1CCc2ccccc2C1 | inconclusive: 31.6 µM [inhibitor, single point] |  |
| Cn1c(=O)n(CCc2ccccc2)c(=O)c2c1ncn2Cc1ccccc1 | inconclusive: 63.1 µM [inhibitor, partial curve, poor fit] |  |

Retrieved one by one from above, 2 records:

| SMILES | Potency | activity change, negative = inhibition |
| --- | --- | --- |
| CC(C)OC(=O)c1ccc(NC(=O)Cn2c(-c3nonc3N)nc3ccccc32)cc1 | inconclusive: 44.7 µM [inhibitor, single point] |  |
| Nc1ccc(-c2ccc(N)c(C(=O)O)c2)cc1C(=O)O | inconclusive: 4.47 µM [inhibitor, single point] |  |
